Source: US20250241586A1, “Bioavailability and bioequivalence through intrinsic activity and KD measurements, in vivo, in humans” (priority 2024, published 2025)
Read-outs that look alike come from different tables or passages of the source.

Sequences of proteins named here, by UniProt entry; tags and fusion partners are left off. A change or cut given only in a name is not applied to a line headed by its entry.
UniProt Q09428: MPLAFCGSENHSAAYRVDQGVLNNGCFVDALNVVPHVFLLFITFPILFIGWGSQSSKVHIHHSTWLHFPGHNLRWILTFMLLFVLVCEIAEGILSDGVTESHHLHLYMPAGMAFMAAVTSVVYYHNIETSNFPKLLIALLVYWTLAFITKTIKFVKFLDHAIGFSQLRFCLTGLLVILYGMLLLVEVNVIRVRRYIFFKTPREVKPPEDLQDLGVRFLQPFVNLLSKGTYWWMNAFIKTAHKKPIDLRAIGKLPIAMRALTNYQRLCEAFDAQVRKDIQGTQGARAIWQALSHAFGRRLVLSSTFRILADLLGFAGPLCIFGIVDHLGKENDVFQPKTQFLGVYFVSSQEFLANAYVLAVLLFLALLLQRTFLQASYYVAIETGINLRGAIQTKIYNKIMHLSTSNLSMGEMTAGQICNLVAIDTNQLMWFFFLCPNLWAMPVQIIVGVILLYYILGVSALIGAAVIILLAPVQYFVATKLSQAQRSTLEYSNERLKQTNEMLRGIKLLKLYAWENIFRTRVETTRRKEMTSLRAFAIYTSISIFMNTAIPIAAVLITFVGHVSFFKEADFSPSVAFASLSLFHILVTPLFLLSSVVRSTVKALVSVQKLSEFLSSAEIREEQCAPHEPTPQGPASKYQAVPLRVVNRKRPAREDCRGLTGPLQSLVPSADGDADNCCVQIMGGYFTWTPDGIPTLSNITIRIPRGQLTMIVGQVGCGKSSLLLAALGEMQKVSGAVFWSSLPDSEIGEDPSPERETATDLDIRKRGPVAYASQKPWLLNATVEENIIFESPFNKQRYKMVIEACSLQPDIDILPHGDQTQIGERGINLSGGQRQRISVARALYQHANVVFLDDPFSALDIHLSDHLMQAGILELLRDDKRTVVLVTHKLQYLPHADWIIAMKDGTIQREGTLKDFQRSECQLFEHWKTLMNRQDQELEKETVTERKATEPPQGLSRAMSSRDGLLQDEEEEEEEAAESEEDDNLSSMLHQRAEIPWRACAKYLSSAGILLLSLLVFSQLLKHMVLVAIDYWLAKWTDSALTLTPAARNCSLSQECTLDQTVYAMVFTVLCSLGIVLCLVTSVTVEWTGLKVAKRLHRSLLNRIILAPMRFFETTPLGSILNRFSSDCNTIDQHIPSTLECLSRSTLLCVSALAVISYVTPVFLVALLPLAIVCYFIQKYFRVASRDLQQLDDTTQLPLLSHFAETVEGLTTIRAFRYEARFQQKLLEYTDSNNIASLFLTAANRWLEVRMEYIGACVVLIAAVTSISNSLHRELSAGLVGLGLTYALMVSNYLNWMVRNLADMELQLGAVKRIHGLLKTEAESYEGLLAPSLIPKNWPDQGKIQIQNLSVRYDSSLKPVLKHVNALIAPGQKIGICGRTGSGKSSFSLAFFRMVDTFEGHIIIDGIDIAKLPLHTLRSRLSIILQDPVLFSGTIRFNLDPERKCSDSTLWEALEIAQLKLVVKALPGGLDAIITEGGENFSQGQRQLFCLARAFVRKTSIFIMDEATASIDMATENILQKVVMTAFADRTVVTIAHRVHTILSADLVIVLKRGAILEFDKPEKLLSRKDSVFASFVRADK

Biological target: K+ channels of the beta cells of the pancreas (Homo sapiens, UniProt Q09428)

Question: With `Cc1cnc(C(=O)NCCc2ccc(S(=O)(=O)NC(=O)NC3CCCCC3)cc2)cn1` [Glipizide, glipizide] as the molecule, how does the “Response AUC reduction” value (glipizide dose 20 Mcg/kg) read?
Answer: Its value is 153 mg·h/dL.

Question: What about the “Response AUC reduction” value (glipizide dose 40 Mcg/kg) of the same molecule?
Answer: Its value is 732 mg·h/dL.

Question: What about the “Response AUC reduction” value (glipizide dose 65 Mcg/kg) of the same molecule?
Answer: Its value is 996 mg·h/dL.
